# Measured values: the supplement of paper PMC12067093, “Discovery and optimisation of a covalent ligand for TRIM25 and its application to targeted protein ubiquitination” (Chemical Science, 2025)
# By UniProt entry, the sequences of proteins in these tests, tags left out. Where a name states a change or a piece, a line headed by the entry shows the natural chain unless it says otherwise.
# UniProt Q96BY6: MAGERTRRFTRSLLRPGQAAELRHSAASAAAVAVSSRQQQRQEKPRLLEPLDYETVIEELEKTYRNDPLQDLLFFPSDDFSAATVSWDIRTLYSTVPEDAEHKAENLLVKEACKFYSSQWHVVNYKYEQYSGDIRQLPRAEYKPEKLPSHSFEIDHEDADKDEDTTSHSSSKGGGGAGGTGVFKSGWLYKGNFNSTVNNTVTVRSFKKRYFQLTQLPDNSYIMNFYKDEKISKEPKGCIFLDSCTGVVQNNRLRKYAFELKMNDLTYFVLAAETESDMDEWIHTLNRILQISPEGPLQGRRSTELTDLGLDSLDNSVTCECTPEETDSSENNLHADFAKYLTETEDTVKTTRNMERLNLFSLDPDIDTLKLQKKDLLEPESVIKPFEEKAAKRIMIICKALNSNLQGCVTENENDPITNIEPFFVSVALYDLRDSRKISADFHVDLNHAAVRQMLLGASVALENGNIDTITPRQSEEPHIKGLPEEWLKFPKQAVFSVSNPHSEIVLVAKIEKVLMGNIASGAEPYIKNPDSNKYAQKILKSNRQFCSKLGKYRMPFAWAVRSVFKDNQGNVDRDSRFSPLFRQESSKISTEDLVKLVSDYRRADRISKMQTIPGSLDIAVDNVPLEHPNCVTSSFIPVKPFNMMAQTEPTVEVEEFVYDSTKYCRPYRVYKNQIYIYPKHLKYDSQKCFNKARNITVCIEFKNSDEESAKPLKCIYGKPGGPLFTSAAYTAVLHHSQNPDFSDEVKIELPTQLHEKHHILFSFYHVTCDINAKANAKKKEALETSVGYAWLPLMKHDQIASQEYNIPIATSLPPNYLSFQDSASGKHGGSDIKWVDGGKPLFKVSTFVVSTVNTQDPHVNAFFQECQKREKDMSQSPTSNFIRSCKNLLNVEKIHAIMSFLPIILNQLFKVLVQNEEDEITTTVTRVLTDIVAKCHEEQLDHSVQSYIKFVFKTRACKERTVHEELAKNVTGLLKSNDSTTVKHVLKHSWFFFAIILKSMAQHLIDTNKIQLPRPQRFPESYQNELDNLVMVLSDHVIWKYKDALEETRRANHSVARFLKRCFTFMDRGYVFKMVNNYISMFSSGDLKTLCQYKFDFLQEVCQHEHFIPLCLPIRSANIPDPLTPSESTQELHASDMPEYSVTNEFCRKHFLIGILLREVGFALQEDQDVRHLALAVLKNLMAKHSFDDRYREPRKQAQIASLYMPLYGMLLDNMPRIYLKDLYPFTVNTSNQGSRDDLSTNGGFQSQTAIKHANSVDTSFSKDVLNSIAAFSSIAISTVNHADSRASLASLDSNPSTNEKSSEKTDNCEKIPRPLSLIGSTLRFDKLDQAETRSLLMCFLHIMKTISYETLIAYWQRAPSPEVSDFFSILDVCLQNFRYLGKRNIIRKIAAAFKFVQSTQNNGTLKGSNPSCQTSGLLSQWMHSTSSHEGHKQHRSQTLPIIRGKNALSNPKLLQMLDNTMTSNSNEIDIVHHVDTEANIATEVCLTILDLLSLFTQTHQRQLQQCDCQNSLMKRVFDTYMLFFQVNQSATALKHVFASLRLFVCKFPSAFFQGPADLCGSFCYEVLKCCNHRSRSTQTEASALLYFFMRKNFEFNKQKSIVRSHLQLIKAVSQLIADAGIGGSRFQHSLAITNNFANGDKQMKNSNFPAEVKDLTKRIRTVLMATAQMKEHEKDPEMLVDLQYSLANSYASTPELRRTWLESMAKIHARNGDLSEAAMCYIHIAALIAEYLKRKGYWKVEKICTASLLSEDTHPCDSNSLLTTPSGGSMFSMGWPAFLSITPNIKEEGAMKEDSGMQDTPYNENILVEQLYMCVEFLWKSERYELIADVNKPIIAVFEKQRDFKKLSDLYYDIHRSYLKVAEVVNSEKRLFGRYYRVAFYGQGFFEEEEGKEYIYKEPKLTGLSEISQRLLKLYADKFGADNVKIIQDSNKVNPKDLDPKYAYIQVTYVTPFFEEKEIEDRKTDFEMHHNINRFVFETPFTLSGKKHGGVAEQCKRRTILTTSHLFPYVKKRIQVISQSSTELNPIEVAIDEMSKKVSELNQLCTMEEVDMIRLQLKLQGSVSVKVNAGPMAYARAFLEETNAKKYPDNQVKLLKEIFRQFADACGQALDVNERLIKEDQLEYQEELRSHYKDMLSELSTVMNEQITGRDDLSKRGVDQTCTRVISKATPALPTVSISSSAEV
# UniProt P60981: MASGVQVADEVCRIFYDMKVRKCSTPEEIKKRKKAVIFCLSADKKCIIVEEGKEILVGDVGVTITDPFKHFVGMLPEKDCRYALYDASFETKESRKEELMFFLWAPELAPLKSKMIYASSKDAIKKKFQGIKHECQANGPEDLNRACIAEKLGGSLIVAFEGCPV
# UniProt Q5JPH6: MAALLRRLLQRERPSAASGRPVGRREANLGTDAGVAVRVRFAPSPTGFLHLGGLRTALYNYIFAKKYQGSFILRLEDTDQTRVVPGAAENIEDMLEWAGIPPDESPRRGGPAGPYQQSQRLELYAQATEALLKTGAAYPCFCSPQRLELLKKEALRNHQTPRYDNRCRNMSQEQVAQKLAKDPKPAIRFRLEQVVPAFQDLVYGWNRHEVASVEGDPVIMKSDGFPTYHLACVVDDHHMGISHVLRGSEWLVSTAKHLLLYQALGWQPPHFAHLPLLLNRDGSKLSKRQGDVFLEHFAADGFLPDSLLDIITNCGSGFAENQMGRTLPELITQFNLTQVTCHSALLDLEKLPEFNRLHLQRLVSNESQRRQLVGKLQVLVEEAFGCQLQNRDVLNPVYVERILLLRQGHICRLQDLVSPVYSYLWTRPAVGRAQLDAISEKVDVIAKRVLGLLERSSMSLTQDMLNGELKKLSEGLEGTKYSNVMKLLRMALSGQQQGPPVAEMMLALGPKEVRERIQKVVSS
# UniProt Q86TI2: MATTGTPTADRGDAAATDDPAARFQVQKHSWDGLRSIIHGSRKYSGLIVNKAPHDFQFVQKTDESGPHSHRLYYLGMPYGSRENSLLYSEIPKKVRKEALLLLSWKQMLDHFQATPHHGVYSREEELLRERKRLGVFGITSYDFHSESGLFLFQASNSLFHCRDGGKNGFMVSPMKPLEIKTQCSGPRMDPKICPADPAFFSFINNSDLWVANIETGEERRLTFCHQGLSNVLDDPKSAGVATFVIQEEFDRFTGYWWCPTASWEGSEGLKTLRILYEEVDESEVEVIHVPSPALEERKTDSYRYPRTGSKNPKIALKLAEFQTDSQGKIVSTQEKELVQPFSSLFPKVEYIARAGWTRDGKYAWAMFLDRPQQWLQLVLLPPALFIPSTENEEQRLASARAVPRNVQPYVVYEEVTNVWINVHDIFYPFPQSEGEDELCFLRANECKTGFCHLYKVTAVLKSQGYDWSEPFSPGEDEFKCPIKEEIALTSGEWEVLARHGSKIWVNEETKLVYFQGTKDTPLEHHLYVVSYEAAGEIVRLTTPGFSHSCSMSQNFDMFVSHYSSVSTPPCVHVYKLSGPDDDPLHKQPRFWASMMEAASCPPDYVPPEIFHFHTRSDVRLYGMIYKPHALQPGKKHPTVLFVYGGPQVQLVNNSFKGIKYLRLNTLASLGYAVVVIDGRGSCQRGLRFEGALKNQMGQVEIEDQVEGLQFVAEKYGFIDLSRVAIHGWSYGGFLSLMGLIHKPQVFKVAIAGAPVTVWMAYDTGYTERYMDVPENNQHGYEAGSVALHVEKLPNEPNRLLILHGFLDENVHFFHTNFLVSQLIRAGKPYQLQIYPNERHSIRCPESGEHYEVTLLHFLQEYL
# UniProt Q9H147: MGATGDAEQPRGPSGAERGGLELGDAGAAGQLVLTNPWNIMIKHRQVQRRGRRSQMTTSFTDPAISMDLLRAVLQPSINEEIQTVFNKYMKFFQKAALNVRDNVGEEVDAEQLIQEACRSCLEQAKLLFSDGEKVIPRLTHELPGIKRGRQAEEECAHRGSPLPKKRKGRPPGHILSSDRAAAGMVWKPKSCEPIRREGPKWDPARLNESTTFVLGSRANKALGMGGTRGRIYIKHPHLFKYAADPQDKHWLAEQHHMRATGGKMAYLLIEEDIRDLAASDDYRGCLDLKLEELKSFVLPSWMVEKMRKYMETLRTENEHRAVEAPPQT
# UniProt O43598: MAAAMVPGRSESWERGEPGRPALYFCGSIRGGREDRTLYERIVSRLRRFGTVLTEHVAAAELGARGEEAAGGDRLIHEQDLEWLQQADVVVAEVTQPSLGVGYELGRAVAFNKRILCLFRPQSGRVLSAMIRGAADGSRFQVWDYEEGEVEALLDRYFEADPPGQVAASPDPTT
# UniProt Q12882: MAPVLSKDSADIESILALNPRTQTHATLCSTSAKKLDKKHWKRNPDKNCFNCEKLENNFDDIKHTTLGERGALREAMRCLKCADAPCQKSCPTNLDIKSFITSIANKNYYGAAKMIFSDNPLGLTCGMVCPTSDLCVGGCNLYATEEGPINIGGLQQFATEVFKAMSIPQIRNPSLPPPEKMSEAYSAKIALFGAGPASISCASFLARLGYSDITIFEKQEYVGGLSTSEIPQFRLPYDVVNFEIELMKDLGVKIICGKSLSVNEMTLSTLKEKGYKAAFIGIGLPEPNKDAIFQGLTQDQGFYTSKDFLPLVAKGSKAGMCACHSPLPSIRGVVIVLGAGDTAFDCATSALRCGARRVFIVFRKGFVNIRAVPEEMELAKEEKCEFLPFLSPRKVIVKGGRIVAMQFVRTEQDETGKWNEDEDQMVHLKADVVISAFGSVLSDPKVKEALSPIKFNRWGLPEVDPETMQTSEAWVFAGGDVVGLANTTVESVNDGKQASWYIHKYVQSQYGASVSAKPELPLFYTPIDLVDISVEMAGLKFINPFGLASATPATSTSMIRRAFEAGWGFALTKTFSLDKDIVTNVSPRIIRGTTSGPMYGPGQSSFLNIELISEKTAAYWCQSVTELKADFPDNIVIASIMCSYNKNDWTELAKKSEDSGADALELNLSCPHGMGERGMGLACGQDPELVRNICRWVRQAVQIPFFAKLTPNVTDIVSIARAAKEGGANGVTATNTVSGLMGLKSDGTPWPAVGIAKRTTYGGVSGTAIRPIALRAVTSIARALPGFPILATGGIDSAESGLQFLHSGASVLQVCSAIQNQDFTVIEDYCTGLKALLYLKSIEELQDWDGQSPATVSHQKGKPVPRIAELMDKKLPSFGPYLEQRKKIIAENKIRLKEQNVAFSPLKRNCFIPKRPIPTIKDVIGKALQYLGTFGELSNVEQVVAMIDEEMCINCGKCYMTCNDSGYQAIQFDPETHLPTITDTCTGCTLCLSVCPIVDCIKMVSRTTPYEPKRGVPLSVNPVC
# UniProt Q6P1R4: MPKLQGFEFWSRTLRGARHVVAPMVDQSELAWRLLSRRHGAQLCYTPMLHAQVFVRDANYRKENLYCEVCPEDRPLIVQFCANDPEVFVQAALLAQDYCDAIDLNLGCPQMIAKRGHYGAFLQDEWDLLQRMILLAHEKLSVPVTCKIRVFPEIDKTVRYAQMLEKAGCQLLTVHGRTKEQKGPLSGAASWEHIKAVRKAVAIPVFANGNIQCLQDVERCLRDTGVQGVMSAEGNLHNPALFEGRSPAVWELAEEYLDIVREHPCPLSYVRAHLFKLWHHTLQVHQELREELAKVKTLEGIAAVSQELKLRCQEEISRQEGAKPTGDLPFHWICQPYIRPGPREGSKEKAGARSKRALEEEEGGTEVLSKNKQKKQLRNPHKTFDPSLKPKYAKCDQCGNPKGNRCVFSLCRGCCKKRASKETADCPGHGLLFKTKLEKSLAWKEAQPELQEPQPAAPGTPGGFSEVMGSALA
# UniProt P55039: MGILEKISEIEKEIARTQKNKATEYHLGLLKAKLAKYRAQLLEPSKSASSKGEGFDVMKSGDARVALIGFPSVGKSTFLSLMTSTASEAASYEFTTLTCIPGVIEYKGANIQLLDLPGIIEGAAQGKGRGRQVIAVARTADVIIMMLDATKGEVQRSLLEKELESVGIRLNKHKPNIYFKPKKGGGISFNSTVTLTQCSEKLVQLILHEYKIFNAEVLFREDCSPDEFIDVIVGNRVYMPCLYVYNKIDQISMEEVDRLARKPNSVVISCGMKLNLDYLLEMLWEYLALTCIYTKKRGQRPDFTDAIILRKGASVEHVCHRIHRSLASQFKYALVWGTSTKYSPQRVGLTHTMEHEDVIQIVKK
# UniProt Q9H410: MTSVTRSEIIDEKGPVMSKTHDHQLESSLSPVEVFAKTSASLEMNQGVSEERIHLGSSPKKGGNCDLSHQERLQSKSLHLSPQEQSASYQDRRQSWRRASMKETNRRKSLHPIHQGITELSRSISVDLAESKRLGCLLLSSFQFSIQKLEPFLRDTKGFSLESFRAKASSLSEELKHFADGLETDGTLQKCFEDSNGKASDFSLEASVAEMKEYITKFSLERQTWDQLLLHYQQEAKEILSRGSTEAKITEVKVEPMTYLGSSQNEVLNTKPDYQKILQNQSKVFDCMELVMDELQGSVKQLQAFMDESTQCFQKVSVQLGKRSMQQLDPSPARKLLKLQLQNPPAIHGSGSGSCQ
# The list shows a part of the results.
# Compound: Cc1cc(ccc1-c1ccccc1)C(=O)N1CCCN(CC1)C(=O)CCl [compound 10]
# Test: probe-labelled cysteine peptide fold change vs DMSO (competition) (log2 fold change); higher = less target engagement (more negative = stronger competition)
# Settings: 10 µM; THP-1; incubation time: 4 h
# 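Note: competitive profiling in live THP-1 cells: cysteine peptides tagged with an iodoacetamide desthiobiotin (IA-DTB) probe, intensity after compound treatment relative to DMSO-treated cells.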
row,Target,probe-labelled cysteine peptide fold change
1,DOCK10_Q96BY6_2164_RGVDQTCTR (UniProt Q96BY6),-0.271
2,DPF2_Q92785_333_CCNICGTSENDDQLLFCDDCDR (UniProt Q92785),0.147
3,DSTN_P60981_46_KCIIVEEGK (UniProt P60981),0.0762
4,EARS2_Q5JPH6_411_QGHICR (UniProt Q5JPH6),0.0877
5,DYNC1H1_Q14204_3693_DPTVEFPPDLCSR (UniProt Q14204),0.1
6,DYNC1I2_Q13409_484_AGISEMFEGHQGPITGIHCHAAVGAVDFSHLFVTSSFDWTVK (UniProt Q13409),0.311
7,DTNBP1_Q96EV8_302_AKPPSSSSTCTDSATR (UniProt Q96EV8),0.109
8,DPP9_Q86TI2_601_FWASMMEAASCPPDYVPPEIFHFHTR (UniProt Q86TI2),0.01
9,DNTTIP1_Q9H147_156_QAEEECAHR (UniProt Q9H147),-0.0863
10,DSTN_P60981_147_ACIAEK (UniProt P60981),0.0205
11,DNPH1_O43598_117_RILCLFRPQSGR (UniProt O43598),-0.368
12,DPYD_Q12882_671_KSEDSGADALELNLSCPHGMGER (UniProt Q12882),0.15
13,DUS1L_Q6P1R4_265_EHPCPLSYVR (UniProt Q6P1R4),0.0863
14,DOCK5_Q9H7D0_316_KHTCGLR (UniProt Q9H7D0),-0.0526
15,DNPH1_O43598_26_GEPGRPALYFCGSIR (UniProt O43598),-0.0894
16,DOK1_Q99704_308_IAPCPSQDSLYSDPLDSTSAQAGEGVQR (UniProt Q99704),-0.253
17,DRG2_P55039_319_GASVEHVCHR (UniProt P55039),0.0827
18,DTWD2_Q8NBA8_252_NNYIQETLLRPLQALCSFQLQHGAQIR (UniProt Q8NBA8),-0.431
19,DSN1_Q9H410_65_KGGNCDLSHQER (UniProt Q9H410),-0.0148
20,DOK3_Q7L591_295_CHSGEGLFAFSTPCAPDLCR (UniProt Q7L591),0.104
21,DOCK10_Q96BY6_1310_TDNCEK (UniProt Q96BY6),-0.105
22,ECH1_Q13011_182_CPKPVIAAVHGGCIGGGVDLVTACDIR (UniProt Q13011),0.139
23,DPYSL2_Q16555_179_DRFQLTDCQIYEVLSVIR (UniProt Q16555),0.25
